This assay has as its target RYR2 (human (endogenous in YES2 and KYSE30/KYSE150)) (UniProt Q92736). The assay can be described thus: co-IP; endogenous proteins; Protein A/G magnetic beads with anti-RYR2 antibody or control IgG, 4 °C 1 h; cell extracts added, 4 °C 12 h; western blot for MDM2.

By UniProt entry, the sequences of proteins in these tests, tags left out.
UniProt Q92736: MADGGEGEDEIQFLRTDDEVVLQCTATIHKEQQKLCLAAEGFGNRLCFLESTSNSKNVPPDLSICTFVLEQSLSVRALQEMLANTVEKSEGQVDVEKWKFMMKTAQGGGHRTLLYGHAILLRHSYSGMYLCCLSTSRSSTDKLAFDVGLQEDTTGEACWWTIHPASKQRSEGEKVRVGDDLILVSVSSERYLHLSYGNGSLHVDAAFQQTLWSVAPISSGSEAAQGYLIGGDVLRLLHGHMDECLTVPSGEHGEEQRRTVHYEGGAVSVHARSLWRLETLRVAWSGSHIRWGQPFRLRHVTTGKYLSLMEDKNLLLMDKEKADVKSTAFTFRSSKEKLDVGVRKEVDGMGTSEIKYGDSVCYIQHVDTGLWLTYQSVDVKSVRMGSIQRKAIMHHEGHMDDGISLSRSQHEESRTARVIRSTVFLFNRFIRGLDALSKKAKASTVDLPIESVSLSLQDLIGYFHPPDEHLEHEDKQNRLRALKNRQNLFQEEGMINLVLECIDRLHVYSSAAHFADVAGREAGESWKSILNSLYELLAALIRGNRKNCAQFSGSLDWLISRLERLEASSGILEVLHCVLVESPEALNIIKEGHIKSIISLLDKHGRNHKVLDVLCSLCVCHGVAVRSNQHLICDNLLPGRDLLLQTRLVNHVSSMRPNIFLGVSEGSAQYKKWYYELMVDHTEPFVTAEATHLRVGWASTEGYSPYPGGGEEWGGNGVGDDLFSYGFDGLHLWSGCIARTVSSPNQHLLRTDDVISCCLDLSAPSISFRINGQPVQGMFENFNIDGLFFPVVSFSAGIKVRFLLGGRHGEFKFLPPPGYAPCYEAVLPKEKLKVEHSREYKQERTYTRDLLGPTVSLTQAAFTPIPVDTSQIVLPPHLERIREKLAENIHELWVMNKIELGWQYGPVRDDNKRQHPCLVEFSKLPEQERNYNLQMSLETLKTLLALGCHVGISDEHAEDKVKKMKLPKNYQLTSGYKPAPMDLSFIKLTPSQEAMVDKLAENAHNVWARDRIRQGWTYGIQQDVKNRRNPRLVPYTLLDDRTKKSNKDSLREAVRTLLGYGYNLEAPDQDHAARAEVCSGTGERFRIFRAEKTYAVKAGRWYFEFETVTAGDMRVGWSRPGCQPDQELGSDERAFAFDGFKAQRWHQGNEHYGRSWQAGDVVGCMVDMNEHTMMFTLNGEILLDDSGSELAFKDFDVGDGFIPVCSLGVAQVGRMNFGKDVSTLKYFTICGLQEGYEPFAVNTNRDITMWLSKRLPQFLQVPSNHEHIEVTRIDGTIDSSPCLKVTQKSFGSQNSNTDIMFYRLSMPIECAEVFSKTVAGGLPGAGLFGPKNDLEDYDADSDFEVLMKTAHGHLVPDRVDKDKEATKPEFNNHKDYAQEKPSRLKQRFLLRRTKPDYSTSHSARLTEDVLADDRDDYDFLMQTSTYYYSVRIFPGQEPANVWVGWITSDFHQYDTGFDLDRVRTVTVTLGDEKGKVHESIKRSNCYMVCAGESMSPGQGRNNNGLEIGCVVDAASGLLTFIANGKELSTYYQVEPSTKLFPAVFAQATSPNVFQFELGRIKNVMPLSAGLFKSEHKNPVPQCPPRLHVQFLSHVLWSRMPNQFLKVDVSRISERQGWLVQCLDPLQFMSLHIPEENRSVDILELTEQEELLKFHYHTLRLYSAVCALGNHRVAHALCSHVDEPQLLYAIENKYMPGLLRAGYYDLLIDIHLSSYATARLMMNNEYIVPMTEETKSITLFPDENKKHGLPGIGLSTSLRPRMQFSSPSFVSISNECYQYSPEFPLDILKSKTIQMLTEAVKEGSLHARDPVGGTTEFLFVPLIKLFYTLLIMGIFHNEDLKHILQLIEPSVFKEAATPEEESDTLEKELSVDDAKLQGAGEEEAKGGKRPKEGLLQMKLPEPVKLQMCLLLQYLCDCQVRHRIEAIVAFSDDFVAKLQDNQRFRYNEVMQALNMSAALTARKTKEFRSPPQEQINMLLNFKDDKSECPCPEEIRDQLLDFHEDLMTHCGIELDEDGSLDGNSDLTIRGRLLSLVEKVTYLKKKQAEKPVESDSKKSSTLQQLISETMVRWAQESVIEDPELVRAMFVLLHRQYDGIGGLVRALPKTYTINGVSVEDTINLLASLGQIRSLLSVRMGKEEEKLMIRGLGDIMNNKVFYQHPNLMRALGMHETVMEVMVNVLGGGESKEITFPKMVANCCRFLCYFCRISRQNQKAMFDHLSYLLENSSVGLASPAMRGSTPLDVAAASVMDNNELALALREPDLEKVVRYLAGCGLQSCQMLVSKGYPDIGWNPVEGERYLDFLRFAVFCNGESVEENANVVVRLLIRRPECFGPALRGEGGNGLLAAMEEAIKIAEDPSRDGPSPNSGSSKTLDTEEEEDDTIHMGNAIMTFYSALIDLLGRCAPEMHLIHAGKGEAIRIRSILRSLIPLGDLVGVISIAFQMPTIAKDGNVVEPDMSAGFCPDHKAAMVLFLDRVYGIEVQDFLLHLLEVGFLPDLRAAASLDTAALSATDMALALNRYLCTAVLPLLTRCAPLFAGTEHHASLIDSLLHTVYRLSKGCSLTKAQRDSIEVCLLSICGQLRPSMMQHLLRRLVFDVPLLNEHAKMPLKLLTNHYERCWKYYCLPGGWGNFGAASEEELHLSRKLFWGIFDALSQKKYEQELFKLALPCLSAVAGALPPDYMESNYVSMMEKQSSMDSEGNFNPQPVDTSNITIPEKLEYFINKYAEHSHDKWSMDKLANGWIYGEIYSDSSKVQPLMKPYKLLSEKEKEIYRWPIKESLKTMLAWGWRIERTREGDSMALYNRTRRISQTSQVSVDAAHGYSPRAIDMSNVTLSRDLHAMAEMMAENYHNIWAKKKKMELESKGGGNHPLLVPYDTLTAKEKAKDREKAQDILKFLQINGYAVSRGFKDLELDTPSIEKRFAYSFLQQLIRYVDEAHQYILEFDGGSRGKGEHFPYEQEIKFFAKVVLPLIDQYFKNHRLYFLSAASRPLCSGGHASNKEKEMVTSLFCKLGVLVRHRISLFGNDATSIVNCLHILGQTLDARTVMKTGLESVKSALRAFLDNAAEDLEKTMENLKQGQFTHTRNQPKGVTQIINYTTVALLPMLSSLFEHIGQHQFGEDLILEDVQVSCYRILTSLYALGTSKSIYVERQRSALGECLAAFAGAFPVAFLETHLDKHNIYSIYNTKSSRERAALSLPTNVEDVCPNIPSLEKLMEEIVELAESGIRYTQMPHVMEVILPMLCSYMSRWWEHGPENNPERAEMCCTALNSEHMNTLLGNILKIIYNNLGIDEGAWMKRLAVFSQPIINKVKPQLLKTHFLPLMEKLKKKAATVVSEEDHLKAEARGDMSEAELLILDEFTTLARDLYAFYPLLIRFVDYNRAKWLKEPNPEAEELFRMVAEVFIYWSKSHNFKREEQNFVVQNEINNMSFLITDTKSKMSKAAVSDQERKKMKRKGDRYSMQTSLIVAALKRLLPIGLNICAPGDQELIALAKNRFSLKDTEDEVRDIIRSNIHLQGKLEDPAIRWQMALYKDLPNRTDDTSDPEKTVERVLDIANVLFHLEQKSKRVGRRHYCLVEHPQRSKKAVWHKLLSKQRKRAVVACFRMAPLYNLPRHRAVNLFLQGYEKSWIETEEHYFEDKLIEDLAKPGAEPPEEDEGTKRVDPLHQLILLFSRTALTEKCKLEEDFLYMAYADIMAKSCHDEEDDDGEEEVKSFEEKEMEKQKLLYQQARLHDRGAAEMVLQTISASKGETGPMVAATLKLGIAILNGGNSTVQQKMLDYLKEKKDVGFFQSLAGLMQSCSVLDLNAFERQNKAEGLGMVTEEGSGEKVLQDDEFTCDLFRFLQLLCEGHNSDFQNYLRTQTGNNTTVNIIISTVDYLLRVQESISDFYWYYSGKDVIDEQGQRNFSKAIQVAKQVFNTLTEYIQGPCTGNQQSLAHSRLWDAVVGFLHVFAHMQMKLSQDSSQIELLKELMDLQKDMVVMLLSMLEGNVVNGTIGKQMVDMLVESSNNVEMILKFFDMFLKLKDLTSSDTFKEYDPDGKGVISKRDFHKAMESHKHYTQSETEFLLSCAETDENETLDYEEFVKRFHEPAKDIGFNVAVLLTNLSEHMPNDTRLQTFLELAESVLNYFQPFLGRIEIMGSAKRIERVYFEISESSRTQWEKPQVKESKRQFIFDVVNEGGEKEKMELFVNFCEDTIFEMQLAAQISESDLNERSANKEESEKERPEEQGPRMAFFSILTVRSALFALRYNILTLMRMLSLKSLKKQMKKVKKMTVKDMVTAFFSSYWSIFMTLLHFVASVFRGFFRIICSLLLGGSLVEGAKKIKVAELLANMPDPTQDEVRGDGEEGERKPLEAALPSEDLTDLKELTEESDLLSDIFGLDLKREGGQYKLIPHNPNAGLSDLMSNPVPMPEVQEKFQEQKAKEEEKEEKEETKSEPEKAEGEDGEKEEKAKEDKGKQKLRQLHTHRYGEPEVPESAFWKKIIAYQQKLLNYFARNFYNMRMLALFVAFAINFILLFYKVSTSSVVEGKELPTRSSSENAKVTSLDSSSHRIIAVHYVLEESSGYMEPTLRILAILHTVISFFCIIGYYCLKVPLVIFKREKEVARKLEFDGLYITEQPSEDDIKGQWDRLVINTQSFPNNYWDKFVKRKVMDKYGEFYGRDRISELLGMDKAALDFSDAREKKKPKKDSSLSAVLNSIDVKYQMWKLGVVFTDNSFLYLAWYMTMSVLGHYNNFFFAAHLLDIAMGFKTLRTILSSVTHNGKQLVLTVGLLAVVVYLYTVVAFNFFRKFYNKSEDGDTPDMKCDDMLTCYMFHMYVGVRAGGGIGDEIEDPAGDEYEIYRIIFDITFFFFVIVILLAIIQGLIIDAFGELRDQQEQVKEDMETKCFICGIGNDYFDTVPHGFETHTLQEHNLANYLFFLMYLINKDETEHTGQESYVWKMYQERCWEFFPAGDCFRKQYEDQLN
UniProt Q00987: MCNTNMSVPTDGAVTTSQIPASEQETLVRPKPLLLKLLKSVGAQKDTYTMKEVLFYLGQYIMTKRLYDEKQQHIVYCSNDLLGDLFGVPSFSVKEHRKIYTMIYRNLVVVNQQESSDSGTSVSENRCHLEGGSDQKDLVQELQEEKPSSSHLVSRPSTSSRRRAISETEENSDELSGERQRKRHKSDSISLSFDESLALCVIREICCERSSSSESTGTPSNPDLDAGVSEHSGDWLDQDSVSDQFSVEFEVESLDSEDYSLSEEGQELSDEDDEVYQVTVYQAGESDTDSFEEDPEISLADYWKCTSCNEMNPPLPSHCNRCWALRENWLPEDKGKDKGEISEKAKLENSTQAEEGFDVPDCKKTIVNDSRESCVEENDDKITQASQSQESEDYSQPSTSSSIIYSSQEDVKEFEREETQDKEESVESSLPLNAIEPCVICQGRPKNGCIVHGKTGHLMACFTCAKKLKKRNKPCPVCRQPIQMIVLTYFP

These are yes or no findings as the source states them, for the method shown. In cells and extracts the contact can be indirect. Some binding calls cover weakened binding; strength is not graded here.

This note sets out measurements from paper PMC9475459.

As for MDM2 (from UniProt Q00987 1-491), the binding entry is “binds”.
